In publication PMC7819943, “Rice protein-binding microarrays: a tool to detect cis-acting elements near promoter regions in rice” one finds binding signal data, which are given here for 23 sequences.

Protein sequences, listed by entry. Tags and fused reporters are not part of them.
UniProt Q0JBA9, entry or part of it: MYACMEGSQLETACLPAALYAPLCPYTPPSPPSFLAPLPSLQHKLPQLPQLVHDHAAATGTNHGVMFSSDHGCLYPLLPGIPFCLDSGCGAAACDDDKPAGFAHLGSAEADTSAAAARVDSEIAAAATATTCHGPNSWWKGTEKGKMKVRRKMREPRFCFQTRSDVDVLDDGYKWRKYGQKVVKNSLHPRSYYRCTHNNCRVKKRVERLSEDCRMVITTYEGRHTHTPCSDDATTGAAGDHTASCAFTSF

The other results are listed elsewhere or left out.

For the assay, the target named is OsWRKY34 (Oryza sativa, UniProt Q0JBA9 1-250). The assay can be described thus: protein-binding microarray (RPBM); PBS, 2% BSA, 51.3 ng/ul salmon testes DNA, 50 uM zinc acetate, 200 nM TF, 25 C, 1 h; high values mean tight binding. The note with it: protein: recombinant; tags: N-terminal polyhistidine and DsRed monomer fusion (pET32a); label: CyDye5-dUTP incorporated in the synthesized complementary strand; 3' TTTTT single-stranded linker to array surface; dsDNA, one strand shown. Summed up:
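The binding signal is fluorescence intensity per array feature (arbitrary units). Readings came from an Axon 4000B scanner after a washed, 2% BSA-blocked, double-stranded custom Agilent array had been incubated for 1 h at 25 °C with 200 nM protein and 50 µM zinc acetate. The protein was a Ni–NTA-purified transcription factor fused N-terminally to polyhistidine and DsRed, expressed in E. coli BL21-CodonPlus.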
“CATCTGCACGCATATATATCTGTAAACTCAGCGCGTTTTTCGGAGTCACCTAGTGCAG”: the binding signal was 8100 fluorescence intensity (a.u.).
“AGAGAGTGGCTGAGGTGAGCTGTGTAGGGTGGGGTTTCCGCGGAGTCACCTAGTGCAG”: the binding signal is 10300 fluorescence intensity (a.u.).
Regarding “AGCATCCGAATCCGGCCACCTCATCATCTCGCCTCGCTTCCGGAGTCACCTAGTGCAG”, the binding signal is 16900 fluorescence intensity (a.u.).
As for “TTAATCGTCCACACGTCACTCTCCTTTGATCCGAAGCTCACGGAGTCACCTAGTGCAG”, the binding signal was 8210 fluorescence intensity (a.u.).
“GAGCTAACCCATTCTCCTCTCGTCTCCGCGGCATCTGACACGGAGTCACCTAGTGCAG”: the binding signal was 8320 fluorescence intensity (a.u.).
Regarding “TAGGCTGGTGTTGATGTTCTTTGATTCGGTATAAATCAATCGGAGTCACCTAGTGCAG”, the binding signal is 8830 fluorescence intensity (a.u.).
As for “ACTCTACCTGCTTACTGCCTTACTCGATCCAGACAGTTCACGGAGTCACCTAGTGCAG”, the figure is 8900 fluorescence intensity (a.u.); as for “TTGGGTGGAGTTACTGTGTTTATTGCTTTCCTTGCAAGCTCGGAGTCACCTAGTGCAG”, 8290 fluorescence intensity (a.u.); as for “CGCTTCCACATGCTGCACCGAAACCTCTCATGTTCATCTCCGGAGTCACCTAGTGCAG”, 14400 fluorescence intensity (a.u.).
With “CCACCGGCTGCAGATTCCACCTGCTCATCGTCGCTTCTTCCGGAGTCACCTAGTGCAG”, the binding signal was 8930 fluorescence intensity (a.u.).
Take “CCTTCGCTTCCGCTGCTCATTTTACTGCCTTGCTCTCGCGCGGAGTCACCTAGTGCAG”: the binding signal was 8760 fluorescence intensity (a.u.).
In the case of “TCACCACCTCTTGTTCGGTTCTTCCCCATCAGGCCATCACCGGAGTCACCTAGTGCAG”, the binding signal is 9000 fluorescence intensity (a.u.).
Take “ACACCTTAATTTTCTGGCCGTCGTGATCTGTATCGCTCTTCGGAGTCACCTAGTGCAG”: the binding signal was 11100 fluorescence intensity (a.u.).
In the case of “TGGTTTGGTTTTCCCGCTCAGCGCTTTGAAAAATTTGGGGCGGAGTCACCTAGTGCAG”, the binding signal is 14100 fluorescence intensity (a.u.).
With “TTTCAGATTTGATGCATTGCCTGTTTTTACCTACCTTTTACGGAGTCACCTAGTGCAG” the figure was 13100 fluorescence intensity (a.u.).
Consider “CCAGTCTTGATTCCATTTCCTCTATTTGTATCCCCAAATACGGAGTCACCTAGTGCAG”, for which the binding signal was 9900 fluorescence intensity (a.u.).
As to “ATATAGCCTACTACTAGCTCCAAATCATCTATAGTCAATGCGGAGTCACCTAGTGCAG”, the binding signal was 8120 fluorescence intensity (a.u.).
As for “AGGCTATCGTATGACTTTCTTCTGCTTTCATTTGTGTTCACGGAGTCACCTAGTGCAG”, the figure is 15300 fluorescence intensity (a.u.); as for “CCCACGCGCCCGGCTATAAATCGCATCCCCGCATTCCTAGCGGAGTCACCTAGTGCAG”, 8440 fluorescence intensity (a.u.).
For the sequence “GCAGGTTCTTCTATCCAACAAATTCATGGCAGCGCCTTTCCGGAGTCACCTAGTGCAG”, the binding signal was 8610 fluorescence intensity (a.u.).
Turning to “CGAAATCACCGATTCCGCCATCCCACCACCACACAAATCCCGGAGTCACCTAGTGCAG”, the binding signal is 8080 fluorescence intensity (a.u.).
On to “GATTAGCACAAGCTATTCACTATAATTTTGGTCAAACATTCGGAGTCACCTAGTGCAG”, for which the binding signal is 8210 fluorescence intensity (a.u.).
As for “AACGCGGCCCATTTACACTCCACTCTCCAATCGCCGTCCGCGGAGTCACCTAGTGCAG”, the binding signal was 9480 fluorescence intensity (a.u.).
